# Earlier results, collected in publication PMC5452965 (PeerJ, 2017).
# Key:
# [1] = system: MCF-7 cells; settings: MTT, 72 h; ref Wang et al. (2016a); cited from earlier work
# [2] = system: U2OS cells; settings: MTT, 48 h; ref Wang et al. (2016a); cited from earlier work
# [3] = system: Hela cells; settings: MTT, 48 h; ref Wang et al. (2016a); cited from earlier work
structure (smiles),measurement,setting,value
"COc1cc2c(c(OC)c1OC)-c1ccc(OC)c(=O)cc1[C@@H](NC(C)=O)CC2 [Colchicine, colchicine]",IC50,[1],30.3 ± 8.02 nM
same,IC50,[2],25.2 ± 19.6 nM
same,IC50,[3],14.9 ± 3.94 nM
